# Results of single-concentration screens

Mtb cholesterol medium: 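Phenotypic screen: M. tuberculosis growth, cholesterol and DPPC medium, 4 days; the read-out is not stated. Tested at 50 µM. Higher reads as more growth inhibition (inferred: compounds with an IC50 in retests scored well above the rest). About 69,000 compounds were tested under these conditions; 0.54% (about 370) showed 50% or more at least once.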
Mtb glucose medium: 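Phenotypic screen: M. tuberculosis growth, glucose 7H9 medium, 3 days; the read-out is not stated. Compounds at 50 µM. Higher reads as more growth inhibition (inferred: compounds with an IC50 in retests scored well above the rest). Of about 69,000 compounds tested this way, about 760 (1.1%) reached 50% or more in at least one test.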

Results are given as percent effect. The record does not define 0% and 100%; most values in the screen are far below 50% and negative numbers occur (in some assays of this library far below -100). Compounds were drawn at random from those tested, without regard to their results. Two or more numbers in one place are separate tests of the same structure; such repeats can differ widely.

| Compound | Mtb cholesterol medium | Mtb glucose medium |
|---|---|---|
| `CN(CCS(=O)(=O)c1cc(Cl)ccc1Cl)CC(=O)Nc1cccc(F)c1` | 13.13% | 38.06% and 22.29% |
| `Cc1ncsc1C(=O)NCCn1nc(C2CCNC2)c2cccnc21.Cl` (stereo not drawn) | -15.32% | 24.62% |
| `CC(=O)N1CCC(Cc2cnc(-c3c(C)n[nH]c3C)cn2)CC1` | -27.39% | 13.45% |
| `COC(=O)c1ccc2c(c1)CCCN2S(=O)(=O)c1cn(C)c(C)n1` | 0.2185% | 24.95% |
| `O=C(O)C(F)(F)F.[H][C@@]12CCN(Cc3nccs3)[C@]1([H])C[C@@H](C(=O)N(C)C)O2` | -3.151% and -5.642% | -21.72% |
| `Cc1cccc(CC2CCCN(C(=O)C3CCOCC3)C2)n1` (stereo not drawn) | -3.317% | 13.67% |
| `O=C(O)C(F)(F)F.[H][C@@]12CCN(c3ccc(C)nn3)[C@]1([H])CC[C@H](C(=O)N1CCCCO1)O2` | -18.1% | 0.7231% |
| `CCc1nc(N2CCN(c3ncccn3)CC2)c2cnn(C)c2n1` | 7.864% | -15.47% |
| `CN1CCOC(CNC(=O)COc2ccc(F)cc2F)C1` (stereo not drawn) | -13.1% | -14.92% |
| `COc1ccc(C(=O)CCC(=O)NCc2c(C)noc2C)cc1F` | -5.672% | -0.8653% |
| `COc1cccc(C(=O)NCc2ccccc2S(=O)(=O)N(C)CCO)c1` | -9.243% and -8.838% | -24.42% |
| `CC(C)NC(=O)c1nc(Cn2c(C(F)(F)F)nc3ccccc32)no1` | 36.26% | 7.618% |
| `COCc1cnc2n1CCN(Cc1cccnc1)C2C.O=C(O)C(F)(F)F.O=C(O)C(F)(F)F` (stereo not drawn) | 2.802% | 22.02% |
| `Cc1nc(COC[C@@H]2CCC[C@@]23CN(C)CCO3)cs1.O=C(O)C(F)(F)F` | 18.41% | 10.53% |
| `COCC(C)N1CCc2onc(-c3ccc(F)c(F)c3)c2C1` (stereo not drawn) | -47.39% | -42.68% |
| `CN1CCOC(CNCc2coc(-c3ccc(Cl)cc3)n2)C1` (stereo not drawn) | 8.273% | 19.02% and 43.7% |
| `CCOCc1nc2c(c(NC(COC)c3ccccn3)n1)CCNCC2` (stereo not drawn) | -2.746% | -1.124% |
| `CN(C)C(=O)COCc1nn(C)c2c1CCN(Cc1ccco1)C2.O=C(O)C(F)(F)F` | -2.01% and -8.715% | -18% and -4.079% |
| `Cc1ccc2c(c1)C1(CCNCC1)CC2N1CCOCC1` (stereo not drawn) | -16.82% | -28.99% |
| `CCS(=O)(=O)N1CCC2(CN(c3cccc(F)c3)C(=O)CN2C)C1.O=C(O)C(F)(F)F` (stereo not drawn) | 2.32% | -20.52% |
| `CN(CC(O)C(F)(F)F)C(=O)Nc1cccc(N2CCCC2)c1` (stereo not drawn) | 8.636% | -3.542% |
| `Cc1cnc(C(=O)NCC(c2ccc(C)o2)N2CCOCC2)cn1` (stereo not drawn) | -12.51% | -39.08% and -11.05% |
| `O=C(O)C(F)(F)F.[H][C@@]12CCN(Cc3ccc(F)cc3)C[C@]1([H])[C@@H](CNS(C)(=O)=O)OC2` | -15.04% | -10.69% |
| `[H][C@]12CC[C@]([H])(CN(c3ncnc4ccsc34)C1)N(CC1CC1)C2=O` | 11.62% | 21.41% and 112.2% |
| `CCOc1cc(C(=O)NS(=O)(=O)c2cccc(C#N)c2)ccc1OC` | -8.482% | -35.07% |
| `CC(=O)N[C@H]1C[C@@H](c2nc(-c3ccc4c(c3)OCO4)no2)N(C)C1` | -3.152% | -1.124% and -3.995% |
| `COCCn1ccnc1C1CCCN(c2cc(OC)nc(N)n2)C1` (stereo not drawn) | -39.95% | -35.84% |
| `Cc1nn(C)cc1CCC(=O)N1CCCC(n2cncn2)C1` (stereo not drawn) | 0.548% | 15.08% |
| `CN1CCOC(CNC(=O)CCCOc2cccc(F)c2)C1` (stereo not drawn) | -7.862% | -12.36% |
| `Cc1cnn(CC2CCCCN2C(=O)c2cc(Cl)c[nH]2)c1` (stereo not drawn) | -1.22% | 8.662% |
| `CN(C)Cc1ccnc(C2CN(CCc3ccccc3)CCO2)n1` (stereo not drawn) | -5.479% | -9.242% |
| `Cc1nn(C)c(N(C)C)c1CNCc1cccc(Cl)c1` | -1.949% | -21.24% and 5.827% |
| `c1ccc2c(c1)CC(n1ccnc1-c1cc3n(n1)CCNC3)CO2` (stereo not drawn) | -15.53% | 7.386% and 1.352% |
| `O=C(NCC1(CO)CC1)c1ccccc1C(F)(F)F` | 16.48% | 0.6836% |
| `CCC[C@H]1CN(C(=O)c2cc(-c3cccs3)n(C)n2)C[C@@H]1N` | -14.41% | 3.735% |
| `Cc1nc[nH]c1CN1CCCC12CCN(c1nc3ccccc3s1)CC2` | 34.04% | 63.01% |
| `COc1ccc(Cl)cc1NCc1cc(C)on1` | -2.237% | -24.64% |
| `CSc1nnc(C2CCN(C(=O)N3CCCC3)CC2)n1C(C)C` | -12.65% and -9.791% | -0.9038% |
| `COCCOc1ncccc1C(=O)N(C)c1ccc(OC)nc1` | 5.85% | 0.7669% and 15.25% |
| `Cc1ccccc1[C@@H]1CN(Cc2ccc(C(F)(F)F)nc2)C[C@H]1C(=O)O` | -6.429% | -27.37% and -8.703% |
| `CC(C)n1ncc2c1NC(=O)CSC2C(F)(F)F` (stereo not drawn) | 1.054% | -4.694% |
| `FC(F)(F)c1cc(C2CCN(c3cnccn3)CC2)n2ccnc2n1` | -9.13% and -18.32% | -36.61% |
| `O=c1[nH]c(C2CCOC2)nc2ccc(Cl)cc12` (stereo not drawn) | 2.31% | -1.889% and 2.942% |
| `c1cncc(CNC2CCc3ncnn3C2)c1` (stereo not drawn) | -40.09% | -75.37% |
| `Oc1cc(CCC2CCCCN2)cc(-c2ccncc2)c1` (stereo not drawn) | -36.7% | -30.56% and -11.89% |
| `CCNC(=O)C1(Cc2cc(-c3ccc(C)cc3)no2)CCCN(C)C1` (stereo not drawn) | 10.19% | 20.02% |
| `O=c1c2cn[nH]c2nc(SCCN2CCOCC2)n1-c1ccccc1` | 3.131% | -3.805% and 0.4901% |
| `CN(C)c1nc2c(c(N3CCC4(CC3)CNC(=O)C4)n1)CCCC2` | -6.964% and -9.041% | -3.311% |
| `Cc1cc(NC(=O)c2ccc(F)cc2Cl)n(C)n1` | -29.82% | 14.12% |
| `CC(C)c1nnc(CN(C)Cc2ccccc2-c2ccccc2)o1` | 21.15% | 47.52% and 57.22% |
| `c1cc(CN2CCc3cncnc3C2)c2c(c1)OCCO2` | -10.32% | 14.09% |
| `Cc1ccc(N2CCC3(CC2)CC(OCC(C)C)C3)nn1.O=C(O)C(F)(F)F` | -2.127% | 17.34% |
| `C[C@]1(O)CCN(Cc2cccnc2)C[C@@H]1Oc1cccc(F)c1` | -3.453% | 21.32% |
| `[H][C@@]12CN(S(=O)(=O)c3ccccc3)C[C@@]1([H])N(CC1CC1)C(=O)CO2` | 6.458% | -4.807% |
| `Cc1nnc(N2CCCC3(CN(Cc4ccc(F)cc4)CCO3)C2)o1.O=C(O)C(F)(F)F` (stereo not drawn) | 14.34% | 5.268% |
| `CCCn1cc(-c2cc(C(=O)N(C)C)c3ccc(C)cc3n2)cn1` | 12.43% | 4.914% |
| `CC(C)c1nc(C2CCCN2c2ccnc(C3CCCC3)n2)no1` (stereo not drawn) | 4.81% | 9.712% |
| `O=C(NS(=O)(=O)c1cccc(C(F)(F)F)c1)c1cscn1` | 12.53% | -2.518% and 4.482% |
| `O=C(O)C(F)(F)F.O=c1cccnn1CC1CN(CC2CCCC2)Cc2nccn2C1` (stereo not drawn) | -23.01% | -15.8% |
| `Cc1cccnc1CN1CCOC(Cc2cccc3ccccc23)C1` (stereo not drawn) | 17.29% and 25.03% | 35.78% and 39.29% |
| `Cc1cc(O)n(-c2ccccc2Cl)c(=O)c1C#N` | 3.935% | 2.835% |
| `OC1CCN(c2nc(-c3ccccc3)no2)CC1` | -1.133% | -8.685% and -7.539% |
| `COC(=O)CNC(=O)c1nc(Br)sc1C(C)C` | -24.08% | 36.05% and 38.37% |
| `CC1(C)CNC(=O)c2nc(CCN3CCCCC3CO)[nH]c2C1` (stereo not drawn) | -15.05% | -12.02% |
| `CC(C)(C(=O)NCC(=O)NC1CC1)c1ccccc1F` | -11.61% | 15.26% |
| `CCCOC1CCCN(C(=O)c2[nH]nc(C)c2Br)C1` (stereo not drawn) | -10.74% | 1.499% |
| `COc1ccc(C2CCCN2Cc2ccc(S(=O)(=O)N(C)C)o2)cc1` (stereo not drawn) | -5.625% | -9.545% |
| `CC(C)CN1C(=O)C2(CCN(Cc3nccs3)C2)c2ccccc21.O=C(O)C(F)(F)F` (stereo not drawn) | -1.604% and -5.489% | -6.768% |
| `CCC(=O)N1CCCC(c2ncc3c(n2)CCN(C)C3)C1` (stereo not drawn) | -2.751% | -3.707% |
| `O=C(c1ccc(Oc2cccnc2)cc1)N1CCN(CCO)CC1` | -12.13% | -36.8% |
| `O=C(c1cc(Cl)cc(Cl)c1)N1CCN(c2nccs2)CC1` | -11.69% | -3.734% and 3.314% |
| `CC(C)(C)C(NC(=O)CCCS(C)(=O)=O)c1ccc(F)cc1F` (stereo not drawn) | -0.1928% | -3.618% and -6.574% |
| `COC(=O)CCN(CC1CCCO1)C(=O)Cc1ccc(OC)c(OC)c1` (stereo not drawn) | -7.636% | 1.269% and -8.352% |
| `Cc1ccc(NC(=O)c2cccc(N(C)C)c2)nc1` | 6.139% | -1.922% and 27.48% |
| `O=C(c1ccccc1)N1CC2(CCNC2)OCc2ccccc21` (stereo not drawn) | 19.26% | 33.23% |
| `Cn1c(NC(=O)CNC(=O)C2CC2)nc2cc(Cl)ccc21` | 1.933% | 32.27% |
| `CCOc1ccnc(N2CCN(C(=O)c3c(CC)noc3C)CC2)n1` | -20.4% | -20.59% |
| `COc1ccc(CN(C)C(=O)CCc2c(C)nc(C)[nH]c2=O)cc1OC` | 5.7% | 2.783% and 4.424% |
| `OC(CN1CCC(CNCc2ccccn2)CC1)c1ccccc1` (stereo not drawn) | 5.172% | 1.083% |
| `CC(C)C(C(=O)N1CCN(c2ccncc2)CC1)n1cncn1` (stereo not drawn) | -16.07% | -1.865% |
| `Cc1cc(Cl)ccc1NCC(=O)Nc1cc(C(C)(C)C)no1` | 0.1026% | 7.107% and -10.91% |

From ChEMBL document CHEMBL3988442, “University of Dundee, Small-Polar-MMV Screening Library” (2021).